The record followed here is publication PMC4503874.

Results are given in words; binding and its absence hold for the method and conditions named. Some binding calls cover weakened binding; strength is not graded here.

Test [1] concerns the target ARIADNE12 (Arabidopsis thaliana) (UniProt Q84RQ9). The experiment in a line: two-hybrid; yeast PJ69-4a co-transformed with AD and BD vectors, SD -L/-T, white light without UV-B; quantified by beta-galactosidase (ONPG) activity.
The target of test [2] is T1, UV … LOCUS 8 (Arabidopsis thaliana) (UniProt Q9FN03).
T1 sequence: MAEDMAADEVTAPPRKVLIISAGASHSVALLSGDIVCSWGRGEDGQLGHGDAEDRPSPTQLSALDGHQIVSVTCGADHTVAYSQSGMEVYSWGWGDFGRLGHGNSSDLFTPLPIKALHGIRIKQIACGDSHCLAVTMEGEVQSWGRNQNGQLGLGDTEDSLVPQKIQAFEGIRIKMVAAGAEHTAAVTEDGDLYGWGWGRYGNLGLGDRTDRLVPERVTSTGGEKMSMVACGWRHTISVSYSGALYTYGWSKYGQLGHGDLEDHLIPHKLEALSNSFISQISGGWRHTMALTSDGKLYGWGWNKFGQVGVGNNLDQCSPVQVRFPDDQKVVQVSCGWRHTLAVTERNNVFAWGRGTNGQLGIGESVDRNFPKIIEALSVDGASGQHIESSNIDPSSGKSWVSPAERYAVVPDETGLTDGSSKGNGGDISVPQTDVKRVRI
Described as above.

The target in test [3] is T2, CONSTITUTIVELY PHOTOMORPHOGENIC 1 (Arabidopsis thaliana) (UniProt P43254).
T2 sequence: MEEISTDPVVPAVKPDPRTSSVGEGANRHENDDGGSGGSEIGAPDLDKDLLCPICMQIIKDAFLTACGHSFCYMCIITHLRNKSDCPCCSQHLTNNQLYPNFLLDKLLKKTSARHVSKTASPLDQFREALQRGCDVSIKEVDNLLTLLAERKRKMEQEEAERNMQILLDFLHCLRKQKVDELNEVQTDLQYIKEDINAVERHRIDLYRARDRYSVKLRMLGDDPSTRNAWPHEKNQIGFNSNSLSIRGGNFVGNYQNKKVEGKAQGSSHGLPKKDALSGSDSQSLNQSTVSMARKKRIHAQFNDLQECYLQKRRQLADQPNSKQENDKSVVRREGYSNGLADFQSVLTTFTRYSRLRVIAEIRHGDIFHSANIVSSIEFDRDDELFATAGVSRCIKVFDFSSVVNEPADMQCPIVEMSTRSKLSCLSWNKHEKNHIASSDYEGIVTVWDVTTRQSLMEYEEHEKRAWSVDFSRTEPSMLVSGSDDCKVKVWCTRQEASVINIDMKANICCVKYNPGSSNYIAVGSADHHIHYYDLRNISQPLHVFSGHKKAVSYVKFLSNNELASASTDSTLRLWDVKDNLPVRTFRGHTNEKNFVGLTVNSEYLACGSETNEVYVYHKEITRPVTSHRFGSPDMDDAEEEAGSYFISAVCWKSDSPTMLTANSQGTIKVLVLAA
Described as above.

Test [4] addresses ARIADNE12 (Arabidopsis thaliana) (UniProt Q84RQ9). As to the kind of experiment: two-hybrid; yeast PJ69-4a co-transformed with AD and BD vectors, SD -L/-T, 20 h on a 32 °C heating block with 3 μmol m^-2 s^-1 UV-B (0.13 W/m^2); quantified by beta-galactosidase (ONPG) activity.
Test [5] addresses T1, UV … LOCUS 8 (Arabidopsis thaliana). Described as above.
Test [6] addresses T2, CONSTITUTIVELY PHOTOMORPHOGENIC 1 (Arabidopsis thaliana). The description is as above.

B1: ARIADNE12 (protein, UniProt Q84RQ9 1-496)
chain: MDNNSVIGSEVDAEADESYVNAALEDGQTGKKSVQRNYATVLTEEDIRALMEIDVQSVSDFTSLSKAEATLLLSHLRWNVDCICKQWSAGAQSVRDSVGLLELDPPSDDNEYFCGACGESHPHKNLASVSCGHRICTRCWTSHINKIISEKPAAEWNLWLKCPVRVGLHASCPASVGLDTIERFASKREKFNYNQYLLRSYVDNRETMKWHPIQGSRCAIDLSPGSGNASVSCHRLVRFCWNCREDAHSPVDCKTAAKWLLENAVPCPKCKLRIPRNQDNSLKMKCLPCNYVFCWFCHVDWIEDMEGTGGDLHFCTFDAVLSDQRGKMSESDSNRYEDCYENWDSNELLMQKEQANLPKLDTIIQELSNTQLENVSQLKFILEAGLQIIECRRVLEWTYVYGYYLREDEVGKQNLLKDTQERLKKFVENLKHCLETNLQPFRYEEEPSKDFNAFRIKLTELTSLTRNHYENVVKDVENGLASVVSEGEASGSGRNQ
As for B1, the binding entry in test [1] is recorded as “binds”; in test [2], “no binding”; in test [3], “no binding”; in test [4] it was “binds”; in test [5], “no binding”; in test [6], “no binding”.
